Results: PubChem BioAssay AID1347076 (National Center for Advancing Translational Sciences (NCATS), 2019)
The campaign covered roughly 400,000 compounds. About 13,000 (3.2%) were called active. This list was built around the results that the source calls inconclusive (neither active nor inactive); the mix of calls is not that of the screen. The call rests on the fitted dose curve; in most records, active means well fitted cell-killing curve with a large enough effect; inconclusive means small, poorly fitted or top-dose-only effect, or effect the other way; inactive means flat fitted curve, though single readings scatter. Potencies beside an inconclusive call are fits to weak or partial responses and may not hold up.

Experiment: qHTS assay for MDR1-selective chemotherapeutics: Primary screen using the drug-selected MDR subline cells KB-V1; further: nearly all actives have a fitted effect of over 60% in size
Conditions: KB-V1 MDR cells viability, CellTiter-Glo, 72 h; activity change, negative = cytotoxicity: at 46.1 µM (top of the series)
Procedure, shortened: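 KB-V1 cells (P-gp-expressing MDR subline of KB-3-1) in phenol-red-free DMEM with 10% FBS were exposed to library compounds over a concentration series for 72 h at 37 degrees C. Viability read by CellTiter-Glo luminescence; concentration-effect curves fitted after normalization.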
On the % scale 0 is the no-effect control and ±100 the full control effect; potency means the concentration at half of the fitted maximal effect.

Row | SMILES | Potency | activity change, negative = cytotoxicity
1 | CCCCC(=O)Nc1sc2c(c1C(N)=O)CCC2 | inconclusive: 20.6 µM [cytotoxic, partial curve] | 
2 | CC1(C)Cc2c(sc3nc(-c4cc5ccccc5o4)n(N)c(=O)c23)CO1 | inconclusive: 2.31 µM [cytotoxic, full curve] | 
3 | COc1ccc(/C(O)=C/c2nc3ccc(C(=O)NCCc4cccc(C)c4)cc3[nH]c2=O)cc1OC |  | inactive: 21.9%
4 | CCOC(=O)c1sc(NC(=O)Nc2ccc(Cl)cc2)cc1C | inconclusive: 29.1 µM [cytotoxic, single point] | 
5 | CCCC(=O)Nc1ccc(S(=O)(=O)N2CCCC2)cc1 | inconclusive: 29.1 µM [cytotoxic, single point] | 
6 | O=C(Nc1cccc2ccccc12)C12CC3CC(C1)CC(n1cnc([N+](=O)[O-])n1)(C3)C2 | inconclusive: 6.51 µM [cytotoxic, full curve] | 
7 | CC1=CC(=C(C#N)C#N)C=C(C)N1CCN1CCN(C(=O)Nc2ccc(Cl)c(Cl)c2)CC1 | inconclusive: 20.6 µM [rising, single point] | 
8 | CC(C)NC(=O)Nc1cccc2c1O[C@H](CN(C)S(=O)(=O)c1ccccc1)[C@@H](C)CN([C@H](C)CO)C2=O | inconclusive: 29.1 µM [cytotoxic, single point] | 
9 | O=C(COc1ccc(Cl)cc1Cl)N1CCCC1 | inconclusive: 32.6 µM [cytotoxic, single point] | 
10 | CCOc1ccccc1OCCCCCc1c(C)n[nH]c1C | active: 2.91 µM | 
11 | C[C@]12c3[nH]c4cc(-c5ccco5)ccc4c3CCN1C(=O)[C@@H](CC(=O)NCCN1CCOCC1)C[C@@H]2C(=O)N1CCOCC1 | inconclusive: 25.9 µM [rising, single point] | 
12 | Clc1ccc(-n2nnnc2-c2cnc3ccc(Cl)cc3c2-c2ccccc2)cc1 | inconclusive: 20.6 µM [cytotoxic, single point] | 
13 | COc1ccc(NC(=O)c2cc([N+](=O)[O-])ccc2N2CCCCC2)cc1OC | inconclusive: 4.61 µM [cytotoxic, full curve] | 
14 | Cn1nnnc1SCCCNCc1cc(Cl)ccc1OCc1ccccc1 | inconclusive: 4.61 µM [cytotoxic, full curve, poor fit] | 
15 | Cc1c2c(nc3nc4ccccc4n13)CC(C)(C)CC2=O | active: 14.6 µM | 
16 | COCc1nnc(NC(=O)COc2ccc3c(c2)OCO3)s1 | inconclusive: 0.731 µM [rising, full curve, poor fit] | 
17 | CC(=O)c1ccc(N2CCN(S(=O)(=O)c3ccc(-c4cnc(C5CC5)o4)cc3)CC2)cc1 | inconclusive: 5.17 µM [cytotoxic, full curve] | 
18 | COc1cc(C(=O)Nc2ccc(N3CCOCC3)cc2)ccc1OCc1c(C)noc1C | inconclusive: 18.4 µM [cytotoxic, partial curve, poor fit] | 
19 | Cc1nc2c(cc(Oc3ccc(S(=O)(=O)N4CCOCC4)cn3)c3ccsc32)s1 | inconclusive: 6.51 µM [cytotoxic, partial curve, poor fit] | 
20 | CC1=C(C(=O)OCc2ccccc2)C(c2ccc(Br)cc2)NC(=O)N1CCCC(=O)O (configuration not stated) | inconclusive: 16.4 µM [rising, partial curve] | 
21 | CN(C)c1ccc(N=Nc2ccccc2C(=O)OCC(=O)Nc2ccccc2C(F)(F)F)cc1 |  | inactive: -8.96%
22 | CSc1ccccc1C(=O)N1CCc2ccccc2C1 | inconclusive: 18.4 µM [cytotoxic, single point] | 
23 | COC(=O)c1ccc(/C=C/C(=O)c2ccc(OC)cc2)cc1 | inconclusive: 20.6 µM [cytotoxic, single point] | 
24 | O=C(c1ccccc1)c1ccc(OCC(O)CN2CCCCC2)cc1 (configuration not stated) |  | inactive: 4.33%

Row | SMILES | Potency | activity change, negative = cytotoxicity
25 | CC(C)CNC(=O)c1ccccc1NC(=O)Nc1ccccc1 |  | inactive: -16.1%
26 | CCOc1ccc(C(=O)NCC2CCCN2S(=O)(=O)c2cccs2)cc1 (configuration not stated) | inconclusive: 29.1 µM [cytotoxic, single point] | 
27 | CC(C)c1ccc(CCNC(=O)CCNC(=O)c2ccc(Br)cc2)cc1 | inconclusive: 0.058 µM [rising, full curve, poor fit] | 
28 | COc1ccc(-c2coc3c(C(=O)NCc4ccc(F)c(F)c4)cccc23)c(C)c1 | inconclusive: 18.4 µM [cytotoxic, partial curve, poor fit] | 
29 | CNC(=O)NC(=O)C(C)OC(=O)c1cc2c(s1)CCCCC2 (configuration not stated) | inconclusive: 20.6 µM [cytotoxic, partial curve] | 
30 | CC(=O)Nc1ccc(SC(C)C(=O)NC(N)=O)cc1 (configuration not stated) |  | inactive: -6.46%
31 | CC(C)(C)OC(=O)N1CCC(c2c(C(=O)N3CCN(c4ncccn4)CC3)cnn2-c2ccc(F)cc2)CC1 |  | inactive: -0.894%
32 | COc1ccc2cc3c(N)nn(C(=O)Cc4ccc(Cl)cc4)c3nc2c1 |  | inactive: -15.7%
33 | Cn1c(N)c(C(=O)COC(=O)c2ccc(Br)o2)c(=O)n(C)c1=O |  | inactive: 25.7%
34 | COc1ccc(C(=O)C2CCN(C(=O)c3ccco3)CC2)cc1 | active: 23.1 µM | 
35 | COc1cc([N+](=O)[O-])ccc1NC(=O)N1CCC2(CC1)Nc1cc(F)ccc1-n1cccc12 |  | inactive: -12.5%
36 | Cc1ccc(N2CCN(C(=O)CCS(=O)(=O)c3cc4c(cc3Cl)NC(=O)CO4)CC2)c(C)c1 |  | inactive: -7.08%
37 | COc1nnc(-c2ccc(N3CCOCC3)c(NC(=O)c3ccccc3)c2)c2ccccc12 | inconclusive: 20.6 µM [cytotoxic, single point] | 
38 | O=c1[nH]c(CCl)nc2cc(-c3ccc(F)cc3)sc12 | inconclusive: 20.6 µM [cytotoxic, partial curve, poor fit] | 
39 | CN(C)c1ccc(CNC(=O)C2CCN(C(=O)c3ccc(-n4ccc5ccccc54)s3)CC2)cc1 |  | inactive: -7.7%
40 | COc1ccccc1Cc1c(-c2ccc(C#N)cc2)nc2c3ccccc3ccn12 | inconclusive: 29.1 µM [cytotoxic, single point] | 
41 | Cc1ccc(Cl)c(OCCN2CCCC(C)C2)c1 (configuration not stated) | inconclusive: 29.1 µM [cytotoxic, partial curve, poor fit] | 
42 | Cc1ccc(-n2nc3ccc(NC(=O)c4ccco4)cc3n2)cc1 |  | inactive: -3.41%
43 | N#CC1(C#N)CC(C=O)=C(N)C1(C#N)CC(=O)C12CC3CC(CC(C3)C1)C2 (configuration not stated) |  | inactive: 13%
44 | Cc1ccc(OC(F)F)c(NC(=O)Nc2cccc(C(F)(F)F)c2)c1 | inconclusive: 35.5 µM [cytotoxic, single point] | 
45 | COc1cc2c(cc1OC)C(C)N(S(=O)(=O)c1cnc(Cl)c(Cl)c1)CC2 (configuration not stated) | inconclusive: 23.1 µM [cytotoxic, single point] | 
46 | CCc1ccccc1-n1cnc2cc(C(=O)O)ccc21 | inconclusive: 23.1 µM [rising, single point] | 
47 | CCCOc1ccc(F)cc1-c1cc(C(=O)NCc2cccc(Cl)c2)[nH]n1 |  | inactive: -0.199%
48 | N#C/C(=C\c1ccc(O)c(O)c1)C(=O)NCCc1ccccc1 | inconclusive: 20.6 µM [cytotoxic, single point] | 

Row | SMILES | Potency | activity change, negative = cytotoxicity
49 | COc1ccc(C(=O)c2ccc(N(C)C)cc2)c2ccccc12 | active: 2.06 µM | 
50 | Cc1ccc(S(=O)(=O)NCCOc2nc(N(C)C)nc(N(C)C)n2)cc1 |  | inactive: -25.2%
51 | COc1ccc(NC(=O)Nc2nnc(-c3ccco3)s2)cc1 |  | inconclusive: -1.7%
52 | COc1ccc(CNC(=O)C(OC(=O)c2ccco2)c2ccc(F)cc2)cc1 (configuration not stated) |  | inconclusive: 31.4%
53 | Cc1cc(C)c(C)c(S(=O)(=O)N2CCC(C(=O)N3CCCC3)CC2)c1C |  | inactive: -4.36%
54 | Cc1cc(C)n(C(=O)c2ccc(C)c(F)c2F)n1 | inconclusive: 23.1 µM [rising, single point] | 
55 | COc1cc2c(cc1OC)CN(C(=O)CNC(=O)c1ccc(OC(F)F)cc1)CC2 | inconclusive: 20.6 µM [cytotoxic, single point] | 
56 | COc1ccc(NC(=O)c2ccco2)cc1NC(=O)c1ccc(OC(C)C)cc1 |  | inactive: 9%
57 | CC(C)(C)Cc1nnc(NC(=O)Cc2cccs2)s1 | inconclusive: 18.4 µM [cytotoxic, single point] | 
58 | CCCc1nc2c3ccccc3ccn2c1Cc1ccccc1 | inconclusive: 29.1 µM [cytotoxic, single point] | 
59 | COc1cccc(OCCn2cc(C(C)=O)c3ccccc32)c1 | inconclusive: 16.4 µM [cytotoxic, single point] | 
60 | COc1cc(NC(=O)Cn2cc(S(=O)(=O)N3CCC(C)CC3)c3ccccc3c2=O)cc(OC)c1OC |  | inactive: -1.83%
61 | CC1CCN(C(=O)CN2C(=O)c3cccc4cccc(c34)C2=O)CC1 | inconclusive: 8.2 µM [cytotoxic, partial curve] | 
62 | O=C(c1ccccc1)c1ccc(C(=O)N2CCN(c3ccccc3Cl)CC2)cc1 |  | inactive: -14.1%
63 | O=C(COC(=O)c1ccc([N+](=O)[O-])o1)NC1CCS(=O)(=O)C1 (configuration not stated) | inconclusive: 29.1 µM [rising, single point] | 
64 | Cc1ccc(NC(=O)c2ccc(S(=O)(=O)N3CCOCC3)cc2)nc1 | active: 16.4 µM | 
65 | CN(NC1OC(=O)c2ccccc21)c1ccc(C(F)(F)F)cc1[N+](=O)[O-] (configuration not stated) |  | inactive: 3.71%
66 | CC(=O)N1c2ccccc2CC1C(=O)N1CCN(c2ccccc2F)CC1 (configuration not stated) |  | inactive: 16.9%
67 | COc1ccc(N2CCN(CNC(=O)c3ccccc3)CC2)cc1 |  | inactive: 13.1%
68 | N#Cc1ccc(Cl)cc1NC(=O)CSc1cccc[n+]1[O-] |  | inactive: 16.3%
69 | Cc1ccccc1CSCC(=O)Nc1c(C)n(C)n(-c2ccccc2)c1=O | active: 18.4 µM | 
70 | CCCNC(=O)c1ccc(COc2ccc(C(C)(C)C)cc2)o1 |  | inactive: 6.13%
71 | NC(=O)CCC1NC(=S)N(Cc2ccccc2)C1=O (configuration not stated) | inconclusive: 14.6 µM [rising, partial curve, poor fit] | 
72 | CCOc1ccc(N2C=Nc3ccc(OCC)cc3C2)cc1 |  | inactive: -16.5%
